Results: article PMC7688343, “GDF6-CD99 Signaling Regulates Src and Ewing Sarcoma Growth” (Cell reports, 2020)
Results are given in words; binding and its absence hold for the method and conditions named. Binding seen in cells or lysates may run through a third protein. Binding calls can cover weak binding; strength is not graded here. Tags and fused reporters may be left off the sequences shown.

Chains of the proteins cited; added tags and fusions are not shown. Lines headed by an entry give the natural chain unless they say otherwise; changes in a name come on top.
UniProt Q6KF10: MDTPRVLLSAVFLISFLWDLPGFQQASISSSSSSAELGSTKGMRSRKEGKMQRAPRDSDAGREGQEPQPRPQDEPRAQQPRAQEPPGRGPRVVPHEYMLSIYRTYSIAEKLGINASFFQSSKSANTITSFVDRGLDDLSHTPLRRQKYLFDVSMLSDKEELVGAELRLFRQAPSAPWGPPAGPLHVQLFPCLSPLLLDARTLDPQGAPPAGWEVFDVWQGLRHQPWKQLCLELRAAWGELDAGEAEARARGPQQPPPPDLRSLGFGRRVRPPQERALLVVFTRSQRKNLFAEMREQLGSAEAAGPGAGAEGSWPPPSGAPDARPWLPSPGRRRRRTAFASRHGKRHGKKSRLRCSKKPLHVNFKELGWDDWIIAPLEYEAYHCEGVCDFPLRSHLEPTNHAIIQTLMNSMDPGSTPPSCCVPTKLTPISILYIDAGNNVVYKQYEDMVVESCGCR

Molecular target: T1, C-terminally FLAG-tagged human CD99 (human) (UniProt P14209)
T1 sequence: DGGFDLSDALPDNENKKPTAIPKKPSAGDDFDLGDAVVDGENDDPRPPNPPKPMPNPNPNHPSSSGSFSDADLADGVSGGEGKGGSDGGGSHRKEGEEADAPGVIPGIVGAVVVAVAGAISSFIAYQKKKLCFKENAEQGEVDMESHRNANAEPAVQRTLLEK
Assay: co-IP; C-terminally FLAG-tagged CD99 and/or CD99L2 co-transfected with GDF6 prodomain (wild type, A249E or L289P) in 293T cells; anti-FLAG immunoprecipitation, immunoblotting

binding | Substance
binds | GDF6 A249E prodomain (from UniProt Q6KF10) (domain or fragment)
binds | GDF6 L289P prodomain (from UniProt Q6KF10) (domain or fragment)
